From patent publication US20210347848A1 come the findings set out here.

The target in one assay is T1, mouse CD47 (mouse) (UniProt Q61735).
T1 sequence (looked up): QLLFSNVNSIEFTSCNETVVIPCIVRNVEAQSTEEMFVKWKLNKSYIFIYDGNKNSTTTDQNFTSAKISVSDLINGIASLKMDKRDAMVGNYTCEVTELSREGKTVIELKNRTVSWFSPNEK
Put plainly: SPR. Background: In SPR one partner is held on a chip, and binding of the other changes the refractive index at the surface.

Assay [1] addresses cynomolgus monkey CD47 (cynomolgus monkey). Put plainly: SPR.

No constants are given. Whether binding was seen depends on the method and setting. Some results given as binding are weak or reduced against the parent protein; the word gives no strength.

B1: Decoy polypeptide U (Fc fusion)
chain: EEELQIIQPDKSVLVAAGETATLRCTITSLFPVGPIQWFRGAGPGRELIYNQREGPFPRVTTVSDTTKRNNMDFSIRIGAITPADAGTYYCVKFRKGSPDDVEFKSGAGTELSVRAKPSDKTHTCPPCPAPEAAGAPSVFLFPPKPKDTLMISRTPEVTCVVVDVSHEDPEVKFNWYVDGVEVHNAKTKPREEQYASTYRVVSVLTVLHQDWLNGKEYKCKVSNKALPAPIEKTISKAKGQPREPQVYTLPPSREEMTKNQVSLTCLVKGFYPSDIAVEWESNGQPENNYKTTPPVLDSDGSFFLYSKLTVDKSRWQQGNVFSCSVMHEALHNHYTQKSLSLSPG
In the case of B1, the binding result (in the assay with mouse CD47 (mouse); in assay [1]) was “binds” throughout.

B2: Decoy polypeptide P (Fc fusion)
chain: EDELQIIQPEKSVSVAAGESATLRCAITSLFPVGPIQWFRGAGAGRVLIYNQRQGPFPRVTTVSETTKRNNLDFSISISNITPADAGTYYCIKFRKGSPDDVEFKSGAGTELSVRAKPSDKTHTCPPCPAPEAAGAPSVFLFPPKPKDTLMISRTPEVTCVVVDVSHEDPEVKFNWYVDGVEVHNAKTKPREEQYASTYRVVSVLTVLHQDWLNGKEYKCKVSNKALPAPIEKTISKAKGQPREPQVYTLPPSREEMTKNQVSLTCLVKGFYPSDIAVEWESNGQPENNYKTTPPVLDSDGSFFLYSKLTVDKSRWQQGNVFSCSVMHEALHNHYTQKSLSLSPG
With B2, the binding result (with mouse CD47 (mouse); in assay [1]) was “binds” in each case.

B3: Decoy polypeptide Q (Fc fusion)
chain: EEELQIIQPDKSISVAAGESATLHCTITSLFPVGPIQWFRGAGPGRVLIYNQRQGPFPRVTTVSDTTKRNNMDFSIRISNITPADAGTYYCIKFRKGSPDDVEFKSGAGTELSVRAKPSDKTHTCPPCPAPEAAGAPSVFLFPPKPKDTLMISRTPEVTCVVVDVSHEDPEVKFNWYVDGVEVHNAKTKPREEQYASTYRVVSVLTVLHQDWLNGKEYKCKVSNKALPAPIEKTISKAKGQPREPQVYTLPPSREEMTKNQVSLTCLVKGFYPSDIAVEWESNGQPENNYKTTPPVLDSDGSFFLYSKLTVDKSRWQQGNVFSCSVMHEALHNHYTQKSLSLSPG
Consider B3, for which the binding entry (with mouse CD47 (mouse); in assay [1]) was “binds” each time.

B4: Decoy polypeptide C (Fc fusion)
chain: EEELQIIQPEKLLLVTVGKTATLHCTITSLFPVGPIQWFRGVGPGRVLIYNQKDGPFPRVTTVSDGTKRNNMDFSIRISSITPADVGTYYCVKFRKGSPEDVEFKSGPGTEMALGAKPSDKTHTCPPCPAPEAAGAPSVFLFPPKPKDTLMISRTPEVTCVVVDVSHEDPEVKFNWYVDGVEVHNAKTKPREEQYASTYRVVSVLTVLHQDWLNGKEYKCKVSNKALPAPIEKTISKAKGQPREPQVYTLPPSREEMTKNQVSLTCLVKGFYPSDIAVEWESNGQPENNYKTTPPVLDSDGSFFLYSKLTVDKSRWQQGNVFSCSVMHEALHNHYTQKSLSLSPG
Turning to B4, the binding entry (with mouse CD47 (mouse); in assay [1]) was “binds” each time.

B5: Decoy polypeptide J (Fc fusion)
chain: EEELQIIQPEKLLLVTVGKTATLHCTITSLLPVGPIQWFRGVGPGRELIYNQRDGPFPRVTTVSDGTKRNNMDFSIRISSITPADVGTYYCVKFRKGTPEDVEFKSGPGTEMALGAKPSDKTHTCPPCPAPEAAGAPSVFLFPPKPKDTLMISRTPEVTCVVVDVSHEDPEVKFNWYVDGVEVHNAKTKPREEQYASTYRVVSVLTVLHQDWLNGKEYKCKVSNKALPAPIEKTISKAKGQPREPQVYTLPPSREEMTKNQVSLTCLVKGFYPSDIAVEWESNGQPENNYKTTPPVLDSDGSFFLYSKLTVDKSRWQQGNVFSCSVMHEALHNHYTQKSLSLSPG
Take B5: the binding entry (in the assay with mouse CD47 (mouse); in assay [1]) was “binds” each time.
